About 10,000 (2.8%) of roughly 360,000 compounds were called active. Inconclusive means that the source gave no clear call. Such entries were picked first, then a sample of the others. The call rests on the fitted dose curve; in most records, active means well fitted inhibition curve with a large enough effect; inconclusive means small, poorly fitted or top-dose-only effect; inactive means flat fitted curve, though single readings scatter. A potency beside an inconclusive call is a rough fit, not a confirmed value.
biological target: Serine/threonine-protein kinase PLK1 (Homo sapiens) (UniProt P53350); assay: qHTS for Inhibitors of PLK1-PDB (polo-like kinase 1 - polo-box domain): Primary Screen; conditions: Plk1 PBD binding of FITC phosphopeptide, fluorescence polarization; further: nearly all actives have a fitted effect of over 65% in size; on max response, negative = inhibition: series mostly up to about 57 µM
On the % scale 0 is the no-effect control and ±100 the full control effect; potency means the concentration at half of the fitted maximal effect.

By UniProt entry, the sequences of proteins in these tests, tags left out.
UniProt P53350, whole entry, looked up: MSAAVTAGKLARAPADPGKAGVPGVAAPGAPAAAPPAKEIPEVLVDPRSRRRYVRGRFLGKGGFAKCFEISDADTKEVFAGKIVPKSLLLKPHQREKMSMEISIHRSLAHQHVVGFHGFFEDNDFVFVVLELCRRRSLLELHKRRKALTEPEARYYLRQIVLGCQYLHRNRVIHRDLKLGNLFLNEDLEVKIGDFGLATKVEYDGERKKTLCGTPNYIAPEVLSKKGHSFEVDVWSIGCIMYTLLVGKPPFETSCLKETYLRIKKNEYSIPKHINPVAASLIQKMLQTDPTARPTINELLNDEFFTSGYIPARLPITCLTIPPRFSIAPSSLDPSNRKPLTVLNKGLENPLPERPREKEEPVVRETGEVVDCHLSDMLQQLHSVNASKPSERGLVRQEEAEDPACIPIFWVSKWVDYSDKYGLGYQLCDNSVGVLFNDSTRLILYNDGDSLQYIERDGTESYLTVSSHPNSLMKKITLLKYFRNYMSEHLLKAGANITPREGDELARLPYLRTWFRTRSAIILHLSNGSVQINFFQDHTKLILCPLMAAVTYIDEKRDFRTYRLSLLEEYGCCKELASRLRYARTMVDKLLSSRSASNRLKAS

Structure (SMILES)	Potency	max response, negative = inhibition
CCOc1cc(C2CC(=O)N3CN(C4CCCCC4)CSC3=C2C#N)ccc1O (configuration not stated)	active: 10.6 µM	–
CCN1CC=C2C(C#N)=C(N)C(C#N)(C#N)C(CCc3ccccc3)C2C1 (configuration not stated)	inconclusive: 26.7 µM [inhibitor, partial curve]	–
Cc1cc(=O)[nH]c(N/N=C/c2ccc(C)o2)n1	–	inactive: 6.28%
O=C(NCc1cccc(C(F)(F)F)c1)C1CC(c2ccccc2F)=NO1 (configuration not stated)	–	inactive: 0.734%
CC(=O)c1cccc(-c2ccnc3c2CC(C(=O)NCc2ccco2)O3)c1 (configuration not stated)	–	inactive: -22%
O=C(O)c1ccc(Nc2nc(-c3ccccc3)nc3ccccc23)cc1	active: 18.9 µM	–
N#Cc1ccc(COc2ccc(CCO)cc2-n2nc3ccccc3n2)cc1	–	inactive: 0.294%
O=C1/C(=C/c2ccncc2)SC(=S)N1Cc1ccccc1	inconclusive: 16.8 µM [inhibitor, partial curve]	–
O=C(Nc1ccccc1Cl)NC1(C(=O)NCc2cccnc2)CCCCC1	–	inactive: -2.13%
Cc1onc(-c2ccccc2Cl)c1C(=O)NCCCN1CCOCC1	–	inactive: -7.25%
NC(=S)N/N=C/c1coc2cc(Br)ccc2c1=O	–	inactive: -9.54%
CCN(CC)S(=O)(=O)c1cc(NS(=O)(=O)c2cccc(Cl)c2Cl)ccc1C	–	inactive: -10.5%
Cc1nc2nc(SCC(=O)c3cccc([N+](=O)[O-])c3)[nH]c2cc1Br	–	inactive: -7.63%
O=C(NNC(=S)NC(=O)c1cccc([N+](=O)[O-])c1)c1ccc(O)cc1	inconclusive: 26.7 µM [inhibitor, partial curve]	–
NC(=S)NNc1ccc(Cl)c(Cl)c1	inconclusive: 29.9 µM [inhibitor, partial curve]	–
Cc1ccc(CN2CCN(/N=C/c3ccc(O)c(O)c3)CC2)cc1	inconclusive: 26.7 µM [inhibitor, single point]	–
Cc1ccccc1/C=N/N1C(=O)CSC1=S	–	inconclusive: -30.1% [inhibitor]
CCOC(=O)c1c(N)sc(C(N)=O)c1C	inconclusive: 18.9 µM [inhibitor, partial curve]	–
COc1ccccc1C1=NC(c2ccccc2)CN1c1ccccc1 (configuration not stated)	inconclusive: 23.8 µM [inhibitor, single point]	–
CCn1c(NC(=O)c2ccc(F)cc2)c2ccccc2nc1=O	–	inconclusive: -8.26% [inhibitor]
Cc1ccccc1OCCn1cc(C(=S)N2CCCC2)c2ccccc21	inconclusive: 23.8 µM [inhibitor, partial curve]	–
NC(=S)NN=C1c2cc(Cl)ccc2-c2c1cc(Cl)cc2[N+](=O)[O-]	inconclusive: 26.7 µM [inhibitor, partial curve]	–
Oc1cc(O)c(CN2CCOCC2)cc1CN1CCOCC1	inconclusive: 21.2 µM [inhibitor, partial curve]	–
Cc1cc(=S)c2cccc(C)c2[nH]1	inconclusive: 23.8 µM [inhibitor, partial curve]	–

Structure (SMILES)	Potency	max response, negative = inhibition
O=C(CSc1nc2ncccc2[nH]1)NC1CCCCC1	inconclusive: 16.8 µM [inhibitor, partial curve]	–
N=c1n(CCN2CCCC2)c2ccccc2n1CC(O)c1ccc(Cl)c(Cl)c1 (configuration not stated)	active: 23.8 µM	–
Cc1ccc(-n2ccnc(SCC(=O)NCCc3ccccc3)c2=O)cc1F	inconclusive: 21.2 µM [inhibitor, partial curve]	–
O=C(c1c(F)c(F)c(F)c(F)c1F)N1CCc2ccccc21	active: 23.8 µM	–
CCOc1ccccc1N1CCN(Cc2cccc(OC)c2OC)CC1	–	inactive: -3.53%
COc1cc(OC)cc(-c2c(-c3cccs3)c3cc(Br)ccc3n2C)c1	–	inactive: -2.6%
CCOc1ccccc1NC(=O)N1CCN(S(C)(=O)=O)CC1	inconclusive: 26.7 µM [inhibitor, single point]	–
CC(=O)Nc1ccc(S(=O)(=O)NCCSCc2ccccc2Cl)cc1	–	inactive: -5.8%
Cc1ccc(CSc2nnc(CNc3ccc(F)cc3)o2)cc1	inconclusive: 18.9 µM [inhibitor, partial curve]	–
C=C[C@@H]1c2ccccc2N(S(=O)(=O)c2ccc(C)cc2)[C@H](c2ccccc2)C1(C#N)C#N	–	inactive: 1.11%
CCCn1c(SCc2cc(=O)oc3ccc4ccccc4c23)n[nH]c1=O	inconclusive: 21.2 µM [inhibitor, partial curve]	–
COC(=O)Nc1sc2c(c1C(N)=O)CCC(C)C2 (configuration not stated)	inconclusive: 15 µM [inhibitor, partial curve]	–
Cn1ccnc1Sc1nc2ccccc2nc1NS(=O)(=O)c1ccccc1	inconclusive: 26.7 µM [inhibitor, single point]	–
O=C(CSc1ccccc1)Nc1ccc2c(c1)OCCO2	inconclusive: 23.8 µM [inhibitor, single point]	–
Cc1c(CCC(=O)N[C@@H](CC(C)C)C(=O)O)c(=O)oc2cc3oc4c(c3cc12)CCCC4	–	inconclusive: -35.1% [inhibitor]
COc1ccc(CN/C=C2\CCCCC2=O)cc1	–	inactive: -2.99%
N#Cc1c(-c2ccccc2)nc(SCC(=O)N(c2ccccc2)c2ccccc2)[nH]c1=O	inconclusive: 23.8 µM [inhibitor, single point]	–
COc1ccc(CCn2c(-c3ccc(OC)cc3)nc3c(c(=O)c4ccccc4n3C)c2=O)cc1	–	inactive: -9.41%
COc1ccc(-c2cn(-c3ccc(OC)cc3)c(=S)[nH]2)cc1	active: 21.2 µM	–
COc1ccc(C)cc1NC(=O)CN1C(=O)COc2ccc(S(=O)(=O)N3CCCCCC3)cc21	inconclusive: 18.9 µM [inhibitor, single point]	–
Cc1cc(N(C)C)ccc1N=Nc1ccc2ncccc2c1	inconclusive: 37.7 µM [inhibitor, single point]	–
CC1=C(C(=O)OCc2ccccc2)C(c2ccc(Cl)cc2)NC(=O)N1CCCC(=O)O (configuration not stated)	–	inactive: 1.9%
Cc1ccc2occ(C3N[C@H](C(=O)O)CS3)c(=O)c2c1 (some centres not stated)	inconclusive: 29.9 µM [inhibitor, partial curve]	–
O=C(CCn1cnc(-c2ccccc2)c1-c1ccccc1)N/N=C/c1ccccc1O	inconclusive: 26.7 µM [inhibitor, single point]	–

Structure (SMILES)	Potency	max response, negative = inhibition
O=C(NCc1cc(C(F)(F)F)ccc1Cl)c1cccc2c1C(=O)c1ccc(N3CCOCC3)cc1S2(=O)=O	–	inactive: -12.2%
CCc1ccc(S(=O)(=O)c2cn(C)c3cc(OC)c(OC)cc3c2=O)cc1	inconclusive: 29.9 µM [inhibitor, partial curve]	–
Cc1ccc(NC(=O)c2sc(N)nc2-c2ccccc2)cc1C	inconclusive: 18.9 µM [inhibitor, partial curve]	–
NC(=O)COc1ccc(C(=O)/C=C2/C(=O)Nc3ccccc32)cc1	–	inconclusive: -30.5% [inhibitor]
CCCOc1ccc(C2C(C(=O)c3cc4ccccc4o3)=C(O)C(=O)N2c2cc(C)on2)cc1OC (configuration not stated)	inconclusive: 21.2 µM [inhibitor, single point]	–
O=C(NC(Cc1ccccc1)C(=O)O)/C(=C/c1cccc([N+](=O)[O-])c1)NC(=O)c1cccc(Br)c1 (configuration not stated)	–	inactive: -3.97%
COc1ccc(S(=O)(=O)Nc2c(C(=O)O)[nH]c3ccc(OC)cc23)cc1	inconclusive: 29.9 µM [inhibitor, single point]	–
CCN1CCN(C(=S)NCCOC)CC1	active: 29.9 µM	–
COC(=O)c1ccc(C)c(NS(=O)(=O)c2ccc(C)c([N+](=O)[O-])c2)c1	inconclusive: 26.7 µM [inhibitor, single point]	–
CN(C)c1nc2ccccc2c(N)c1-c1ccccc1	inconclusive: 29.9 µM [inhibitor, partial curve]	–
COc1ccc(-n2nc3c(c2NC(=O)c2c(F)cccc2Cl)CS(=O)C3)cc1 (configuration not stated)	–	inactive: 4.4%
CCC1=NN2C(=N)/C(=C\c3ccc(OCCOc4ccccc4OC)cc3)C(=O)N=C2S1	inconclusive: 37.7 µM [inhibitor, single point]	–
N#CC1=C(N)OC2=C(C(=O)CCC2)C1c1ccsc1 (configuration not stated)	inconclusive: 33.6 µM [inhibitor, single point]	–
Cc1cc(-c2cccs2)c(C#N)c(=S)[nH]1	inconclusive: 26.7 µM [inhibitor, partial curve]	–
CCn1ncc(Br)c1C(=O)Nc1ccc(-c2ccno2)cc1	inconclusive: 26.7 µM [inhibitor, single point]	–
O=C(Nc1cccc(-c2cccc(F)c2)c1)C1CCN(Cc2ccco2)CC1	–	inactive: -6.41%
CC(C)Cc1csc(=S)[nH]1	inconclusive: 23.8 µM [inhibitor, partial curve]	–
Cc1sc2ncn(CC(=O)NCCCC(=O)Nc3ccc(C(C)C)cc3)c(=O)c2c1C	–	inactive: -10.2%
Nc1cc(C(=O)O)ccc1N1CCCCC1	inconclusive: 16.8 µM [inhibitor, partial curve]	–
O=c1c2c3c(sc2nc(NCCO)n1CCc1ccccc1)CCCCC3	–	inconclusive: -36.5% [inhibitor]
COc1ccc(N2CCN(S(=O)(=O)/C=C/c3ccccc3)CC2)cc1	–	inactive: -9.38%
O=C(NC1(C(F)(F)F)C(=O)Nc2c1c(=O)[nH]c(=O)n2Cc1ccco1)C1CCCCC1 (configuration not stated)	inconclusive: 26.7 µM [inhibitor, single point]	–
O=C(OCc1csc(Nc2ccccc2)n1)c1ccc(Cl)cc1	inconclusive: 33.6 µM [inhibitor, single point]	–
C[C@@H]1CN([C@@H](C)CO)C(=O)c2cc(C#CC3CCCCC3)cnc2O[C@@H]1CN(C)S(=O)(=O)c1ccc(F)cc1	inconclusive: 26.7 µM [inhibitor, single point]	–

Some of these compounds in order of length of the SMILES, descending:
Structure (SMILES)	Potency	max response, negative = inhibition
C[C@@H]1CN([C@@H](C)CO)C(=O)c2cc(C#CC3CCCCC3)cnc2O[C@@H]1CN(C)S(=O)(=O)c1ccc(F)cc1	inconclusive: 26.7 µM [inhibitor, single point]	–
O=C(NC(Cc1ccccc1)C(=O)O)/C(=C/c1cccc([N+](=O)[O-])c1)NC(=O)c1cccc(Br)c1 (configuration not stated)	–	inactive: -3.97%
O=C(NCc1cc(C(F)(F)F)ccc1Cl)c1cccc2c1C(=O)c1ccc(N3CCOCC3)cc1S2(=O)=O	–	inactive: -12.2%
COc1ccc(C)cc1NC(=O)CN1C(=O)COc2ccc(S(=O)(=O)N3CCCCCC3)cc21	inconclusive: 18.9 µM [inhibitor, single point]	–
NC(=S)NN=C1c2cc(Cl)ccc2-c2c1cc(Cl)cc2[N+](=O)[O-]	inconclusive: 26.7 µM [inhibitor, partial curve]	–
O=C(Nc1cccc(-c2cccc(F)c2)c1)C1CCN(Cc2ccco2)CC1	–	inactive: -6.41%
O=C(NCc1cccc(C(F)(F)F)c1)C1CC(c2ccccc2F)=NO1 (configuration not stated)	–	inactive: 0.734%
N#Cc1ccc(COc2ccc(CCO)cc2-n2nc3ccccc3n2)cc1	–	inactive: 0.294%
O=c1c2c3c(sc2nc(NCCO)n1CCc1ccccc1)CCCCC3	–	inconclusive: -36.5% [inhibitor]
Cc1ccccc1OCCn1cc(C(=S)N2CCCC2)c2ccccc21	inconclusive: 23.8 µM [inhibitor, partial curve]	–
O=C(OCc1csc(Nc2ccccc2)n1)c1ccc(Cl)cc1	inconclusive: 33.6 µM [inhibitor, single point]	–
Cc1cc(N(C)C)ccc1N=Nc1ccc2ncccc2c1	inconclusive: 37.7 µM [inhibitor, single point]	–
CN(C)c1nc2ccccc2c(N)c1-c1ccccc1	inconclusive: 29.9 µM [inhibitor, partial curve]	–
CC(C)Cc1csc(=S)[nH]1	inconclusive: 23.8 µM [inhibitor, partial curve]	–

From PubChem BioAssay AID720504 (National Center for Advancing Translational Sciences (NCATS), 2013)
